We go through one substance from article PMC10439630.

Chains of the proteins cited; added tags and fusions are not shown.
UniProt Q92831: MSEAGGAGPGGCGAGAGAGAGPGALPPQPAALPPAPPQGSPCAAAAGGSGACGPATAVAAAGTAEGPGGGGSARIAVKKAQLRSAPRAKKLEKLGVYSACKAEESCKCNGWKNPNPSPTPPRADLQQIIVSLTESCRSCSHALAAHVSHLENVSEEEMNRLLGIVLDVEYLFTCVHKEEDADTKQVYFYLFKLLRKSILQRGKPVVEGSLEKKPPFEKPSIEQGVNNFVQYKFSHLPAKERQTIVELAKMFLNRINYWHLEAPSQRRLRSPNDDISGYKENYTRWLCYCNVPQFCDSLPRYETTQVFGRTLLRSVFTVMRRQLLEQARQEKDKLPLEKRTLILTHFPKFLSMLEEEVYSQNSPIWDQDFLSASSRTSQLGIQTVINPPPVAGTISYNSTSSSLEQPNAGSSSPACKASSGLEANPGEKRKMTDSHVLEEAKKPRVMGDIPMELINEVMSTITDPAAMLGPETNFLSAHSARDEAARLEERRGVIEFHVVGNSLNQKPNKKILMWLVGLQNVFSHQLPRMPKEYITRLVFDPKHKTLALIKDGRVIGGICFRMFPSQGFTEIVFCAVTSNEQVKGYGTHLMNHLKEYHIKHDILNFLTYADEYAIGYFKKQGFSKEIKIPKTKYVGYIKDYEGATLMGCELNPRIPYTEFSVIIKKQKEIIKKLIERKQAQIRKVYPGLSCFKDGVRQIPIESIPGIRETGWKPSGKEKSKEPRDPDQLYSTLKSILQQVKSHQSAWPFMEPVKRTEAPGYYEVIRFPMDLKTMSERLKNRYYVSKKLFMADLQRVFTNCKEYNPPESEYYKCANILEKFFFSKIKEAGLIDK
UniProt Q04206: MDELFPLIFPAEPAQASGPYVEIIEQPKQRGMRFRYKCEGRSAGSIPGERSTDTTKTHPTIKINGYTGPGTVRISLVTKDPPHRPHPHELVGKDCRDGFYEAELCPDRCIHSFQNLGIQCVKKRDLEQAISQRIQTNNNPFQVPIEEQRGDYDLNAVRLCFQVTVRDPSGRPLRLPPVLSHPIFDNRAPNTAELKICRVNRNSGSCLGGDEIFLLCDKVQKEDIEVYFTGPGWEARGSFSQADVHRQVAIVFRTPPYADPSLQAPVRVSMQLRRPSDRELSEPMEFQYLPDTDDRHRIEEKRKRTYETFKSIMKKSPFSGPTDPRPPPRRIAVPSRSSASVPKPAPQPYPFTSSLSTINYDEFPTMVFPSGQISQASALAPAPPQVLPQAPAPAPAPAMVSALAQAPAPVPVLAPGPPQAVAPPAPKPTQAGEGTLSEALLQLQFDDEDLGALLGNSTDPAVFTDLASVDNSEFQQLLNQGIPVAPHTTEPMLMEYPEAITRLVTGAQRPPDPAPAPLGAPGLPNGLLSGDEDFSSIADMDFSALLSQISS

The assay concerns the target P300/CBP-associated factor (PCAF) (human) (UniProt Q92831). Briefly: co-IP; reciprocal co-IP; protein A + G magnetic beads with antibody (PCAF, p65, HA and Flag antibodies listed) or normal IgG added to cell extracts in lysis buffer for Western and IP with PMSF and phosphatase inhibitor; western blot; cells not named. On the technique in general: In western blotting, separated proteins are transferred to a membrane and probed.

These are yes or no findings as the source states them, for the method shown. In cells and extracts the contact can be indirect. Some results given as binding are weak or reduced against the parent protein; the word gives no strength.

For “NF-κB subunit p65 (from UniProt Q04206 1-551)”, the binding entry is on record as “binds”.
